PMC3674349
No constants are given. Whether binding was seen depends on the method and setting. In cells and extracts the contact can be indirect. Some results given as binding are weak or reduced against the parent protein; the word gives no strength.

Protein sequences, listed by entry. Tags and fused reporters are not part of them.
UniProt Q14571: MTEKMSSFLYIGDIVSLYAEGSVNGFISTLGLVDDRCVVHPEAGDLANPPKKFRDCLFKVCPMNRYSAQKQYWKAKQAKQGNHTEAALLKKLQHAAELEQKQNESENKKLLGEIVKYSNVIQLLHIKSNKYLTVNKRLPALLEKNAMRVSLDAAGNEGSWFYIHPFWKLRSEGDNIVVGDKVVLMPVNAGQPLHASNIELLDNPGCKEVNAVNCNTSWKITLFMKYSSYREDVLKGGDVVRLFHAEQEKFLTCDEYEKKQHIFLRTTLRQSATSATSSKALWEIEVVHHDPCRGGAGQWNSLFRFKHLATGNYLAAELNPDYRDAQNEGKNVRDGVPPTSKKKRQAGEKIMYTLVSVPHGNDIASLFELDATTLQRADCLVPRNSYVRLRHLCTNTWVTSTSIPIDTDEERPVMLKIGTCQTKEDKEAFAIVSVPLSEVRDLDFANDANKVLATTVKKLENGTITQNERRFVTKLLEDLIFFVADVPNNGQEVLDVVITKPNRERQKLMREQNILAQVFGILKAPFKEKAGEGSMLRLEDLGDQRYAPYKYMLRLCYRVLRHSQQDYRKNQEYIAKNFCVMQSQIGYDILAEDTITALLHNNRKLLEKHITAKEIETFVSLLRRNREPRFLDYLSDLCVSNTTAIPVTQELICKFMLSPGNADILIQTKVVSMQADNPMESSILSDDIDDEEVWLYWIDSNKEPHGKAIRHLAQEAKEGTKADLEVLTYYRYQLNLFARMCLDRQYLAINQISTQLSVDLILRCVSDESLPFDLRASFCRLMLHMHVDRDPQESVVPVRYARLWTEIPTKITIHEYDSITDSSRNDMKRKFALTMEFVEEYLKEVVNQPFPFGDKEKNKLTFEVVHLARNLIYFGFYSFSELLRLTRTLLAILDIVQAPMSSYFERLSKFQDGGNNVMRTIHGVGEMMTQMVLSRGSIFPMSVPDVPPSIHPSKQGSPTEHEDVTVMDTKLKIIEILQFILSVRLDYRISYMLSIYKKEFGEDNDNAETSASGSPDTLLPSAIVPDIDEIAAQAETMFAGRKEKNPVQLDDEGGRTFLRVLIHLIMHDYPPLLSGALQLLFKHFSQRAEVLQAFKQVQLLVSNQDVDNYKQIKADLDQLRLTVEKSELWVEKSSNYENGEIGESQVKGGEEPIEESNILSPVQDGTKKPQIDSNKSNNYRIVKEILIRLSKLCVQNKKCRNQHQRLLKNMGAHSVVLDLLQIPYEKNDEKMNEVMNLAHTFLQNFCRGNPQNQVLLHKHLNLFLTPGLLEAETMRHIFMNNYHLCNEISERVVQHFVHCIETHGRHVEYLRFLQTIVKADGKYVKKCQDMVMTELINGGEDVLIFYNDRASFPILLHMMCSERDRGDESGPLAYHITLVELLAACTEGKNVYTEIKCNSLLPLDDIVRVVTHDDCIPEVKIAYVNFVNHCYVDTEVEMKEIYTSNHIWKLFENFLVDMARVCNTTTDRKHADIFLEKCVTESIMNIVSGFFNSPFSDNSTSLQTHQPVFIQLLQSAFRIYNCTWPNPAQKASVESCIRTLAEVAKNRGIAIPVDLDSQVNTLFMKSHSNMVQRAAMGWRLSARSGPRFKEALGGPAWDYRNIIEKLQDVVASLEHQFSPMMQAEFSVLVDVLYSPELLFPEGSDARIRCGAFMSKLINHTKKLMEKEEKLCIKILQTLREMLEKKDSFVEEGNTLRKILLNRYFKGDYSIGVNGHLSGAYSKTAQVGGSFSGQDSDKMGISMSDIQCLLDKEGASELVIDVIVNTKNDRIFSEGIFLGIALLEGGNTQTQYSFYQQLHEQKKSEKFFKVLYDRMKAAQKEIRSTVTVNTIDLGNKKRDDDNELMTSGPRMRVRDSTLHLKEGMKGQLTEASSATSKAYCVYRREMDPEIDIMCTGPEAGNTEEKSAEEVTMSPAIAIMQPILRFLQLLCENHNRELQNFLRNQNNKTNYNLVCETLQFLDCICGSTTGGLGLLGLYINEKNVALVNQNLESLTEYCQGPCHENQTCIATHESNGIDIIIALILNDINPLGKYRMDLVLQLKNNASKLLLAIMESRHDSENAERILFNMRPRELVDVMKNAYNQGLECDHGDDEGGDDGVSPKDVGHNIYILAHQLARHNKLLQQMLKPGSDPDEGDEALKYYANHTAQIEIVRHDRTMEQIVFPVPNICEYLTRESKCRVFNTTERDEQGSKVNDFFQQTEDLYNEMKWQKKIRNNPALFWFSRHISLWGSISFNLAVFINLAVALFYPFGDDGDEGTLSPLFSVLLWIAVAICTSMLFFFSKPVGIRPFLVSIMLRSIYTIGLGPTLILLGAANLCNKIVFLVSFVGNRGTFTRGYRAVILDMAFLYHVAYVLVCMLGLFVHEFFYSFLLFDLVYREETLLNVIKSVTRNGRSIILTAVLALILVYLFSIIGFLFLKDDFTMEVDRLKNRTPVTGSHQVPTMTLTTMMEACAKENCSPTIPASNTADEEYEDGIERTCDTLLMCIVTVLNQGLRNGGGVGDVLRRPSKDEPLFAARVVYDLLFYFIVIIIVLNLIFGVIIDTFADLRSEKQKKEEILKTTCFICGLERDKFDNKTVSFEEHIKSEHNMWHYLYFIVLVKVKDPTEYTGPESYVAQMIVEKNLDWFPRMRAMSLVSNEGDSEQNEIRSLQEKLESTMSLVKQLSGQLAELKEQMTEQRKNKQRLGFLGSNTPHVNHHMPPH
UniProt P10415: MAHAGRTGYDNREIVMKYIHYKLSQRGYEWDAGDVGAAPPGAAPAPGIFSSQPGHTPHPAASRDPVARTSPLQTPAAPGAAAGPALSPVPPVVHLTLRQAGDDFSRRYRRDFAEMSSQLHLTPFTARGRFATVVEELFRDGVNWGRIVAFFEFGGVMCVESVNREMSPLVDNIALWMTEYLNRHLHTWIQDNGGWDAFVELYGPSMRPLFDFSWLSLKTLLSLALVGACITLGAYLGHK

Experiments:
[1] = molecular target: inositol 1,4,5-trisphosphate receptor type 2 (IP3R2) (human (endogenous in SU-DHL-4 and OCI-LY-1)) (UniProt Q14571); test: co-IP; OCI-LY-1 lysate (25 mM HEPES pH 7.5, 1% Triton X-100, 300 mM NaCl); endogenous IP3R2 or IP3R3 immunoprecipitated on Protein-A/G magnetic beads overnight, blot for Bcl-2; cells pretreated 2 h without or with 10 μM TAT-IDP^S
[2] = molecular target: inositol 1,4,5-trisphosphate receptor type 2 (IP3R2) (human (endogenous in SU-DHL-4 and OCI-LY-1)) (UniProt Q14571); test: co-IP; SU-DHL-4 lysate (25 mM HEPES pH 7.5, 1% Triton X-100, 300 mM NaCl); endogenous IP3R2 or IP3R3 immunoprecipitated on Protein-A/G magnetic beads overnight, blot for Bcl-2; cells pretreated 2 h without or with 10 μM TAT-IDP^S

- binding [1]: binds weakly
- binding [2]: binds
Substance: B-cell lymphoma 2 (Bcl-2) (from UniProt P10415 1-239)
